Results deposited as PubChem BioAssay AID1259425 (University of Nebraska Medical Center, 2018).
Screen: 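Find knockdowns that reproduce the gene expression pattern seen when KSR1 is lost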 (primary screen). Cell system: HCT116 human colon cancer cells. Reagent: siRNA pool against human genes, 50 nM siRNA. Detection: 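mRNA of six signature genes measured together by branched-DNA assay after 50 nM siRNA pool, blank removed, divided by geometric mean of two housekeeping genes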. Scale: BNIP3L mRNA: higher = more BNIP3L transcript after knockdown; NDRG1 mRNA: higher = more NDRG1 transcript after knockdown.
Shown is an unselected part of about 14,000 deposited reagents. Not all columns of the deposit are shown. Not stated in the record: the time to read-out.

SNRPC (GeneID 6631) [SID363994237]
- BNIP3L mRNA, set 1: 0.0801
- NDRG1 mRNA, set 1: 2.78

SLC30A1 (GeneID 7779) [SID364002081]
- BNIP3L mRNA, set 1: 0.121
- NDRG1 mRNA, set 1: 0.108

KLK13 (GeneID 26085) [SID363999592]
- BNIP3L mRNA, set 1: 0.0727
- NDRG1 mRNA, set 1: 0.103

TMEM167B (GeneID 56900) [SID364001502]
- BNIP3L mRNA, set 1: 0.183
- NDRG1 mRNA, set 1: 0.663

IFNA16 (GeneID 3449) [SID363993377]
- BNIP3L mRNA, set 1: 0.128
- NDRG1 mRNA, set 1: 0.924

DAPK3 (GeneID 1613) [SID363992625]
- BNIP3L mRNA, set 1: 0.105
- NDRG1 mRNA, set 1: 0.0884

LEMD3 (GeneID 23592) [SID363998749]
- BNIP3L mRNA, set 1: 0.0759
- NDRG1 mRNA, set 1: 0.178

VN1R4 (GeneID 317703) [SID364004850]
- BNIP3L mRNA, set 1: 0.0794
- NDRG1 mRNA, set 1: 0.138

TAF13 (GeneID 6884) [SID363996538]
- BNIP3L mRNA, set 1: 0.247
- NDRG1 mRNA, set 1: 0.378

KRTAP4-9 (GeneID 100132386) [SID364005501]
- BNIP3L mRNA, set 1: 0.0783
- NDRG1 mRNA, set 1: 0.42

ZNF512B (GeneID 57473) [SID364001792]
- BNIP3L mRNA, set 1: 0.167
- NDRG1 mRNA, set 1: 0.141

EXOC3 (GeneID 11336) [SID363997966]
- BNIP3L mRNA, set 1: 0.16
- NDRG1 mRNA, set 1: 0.382

Targets listed so far whose target name begins with T or t (2):
TMEM167B (GeneID 56900) [SID364001502]
- BNIP3L mRNA, set 1: 0.183
- NDRG1 mRNA, set 1: 0.663

TAF13 (GeneID 6884) [SID363996538]
- BNIP3L mRNA, set 1: 0.247
- NDRG1 mRNA, set 1: 0.378
